Measured values reported in PubChem BioAssay AID743255 (National Center for Advancing Translational Sciences (NCATS), 2014).
Out of some 390,000 compounds screened, about 910 (0.23%) were called active. The shares of active, inactive and inconclusive entries below differ from those in the screen. The call rests on the fitted dose curve; in most records, active means well fitted inhibition curve with a large enough effect; inconclusive means small, poorly fitted or top-dose-only effect; inactive means no such curve, though single readings can be large or run the other way. Where the call is inconclusive, the potency comes from a doubtful curve fit.

Chains of the proteins cited; added tags and fusions are not shown. Lines headed by an entry give the natural chain unless they say otherwise; changes in a name come on top.
UniProt O94782: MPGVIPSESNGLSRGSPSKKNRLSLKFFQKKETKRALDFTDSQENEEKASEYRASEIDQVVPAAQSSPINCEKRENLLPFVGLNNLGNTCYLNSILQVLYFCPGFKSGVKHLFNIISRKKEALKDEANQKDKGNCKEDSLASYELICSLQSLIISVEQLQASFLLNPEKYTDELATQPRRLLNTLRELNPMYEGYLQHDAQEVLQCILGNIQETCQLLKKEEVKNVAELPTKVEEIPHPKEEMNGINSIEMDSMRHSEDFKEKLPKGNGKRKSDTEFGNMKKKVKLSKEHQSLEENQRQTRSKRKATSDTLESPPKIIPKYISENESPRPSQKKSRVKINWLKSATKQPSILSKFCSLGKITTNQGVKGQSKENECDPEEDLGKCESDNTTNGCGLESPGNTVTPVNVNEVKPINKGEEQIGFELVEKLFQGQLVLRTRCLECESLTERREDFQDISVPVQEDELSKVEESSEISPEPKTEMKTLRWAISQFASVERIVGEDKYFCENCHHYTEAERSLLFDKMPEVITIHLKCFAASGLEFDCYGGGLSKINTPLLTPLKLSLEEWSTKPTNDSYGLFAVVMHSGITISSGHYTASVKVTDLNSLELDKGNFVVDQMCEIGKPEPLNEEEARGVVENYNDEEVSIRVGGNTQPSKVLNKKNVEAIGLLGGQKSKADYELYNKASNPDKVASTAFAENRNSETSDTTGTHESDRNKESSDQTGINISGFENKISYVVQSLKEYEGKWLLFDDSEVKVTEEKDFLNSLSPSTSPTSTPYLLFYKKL

Target: Ubiquitin carboxyl-terminal hydrolase 1 (Homo sapiens) (UniProt O94782)
Assay: Inhibitors of USP1/UAF1: Primary Screen; further: nearly all actives have a fitted effect of over 60% in size
Details: recombinant USP1/UAF1, Ub-Rhodamine cleavage fluorescence; activity change, negative = inhibition: at 57.1 µM (top of the series)
Summary of the method: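 USP1/UAF1 complex (1 nM) preincubated 15 min at room temperature with compound, then Ub-Rho substrate (150 nM final) added. Kinetic fluorescence at 480/540 nm over 6 reads at 60 s intervals; 50 mM HEPES pH 7.8, 0.5 mM EDTA, 0.1 mg/ml BSA, 1 mM TCEP, 0.01% Tween-20.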
On the % scale 0 is the no-effect control and ±100 the full control effect; potency means the concentration at half of the fitted maximal effect.

Row | SMILES | activity change, negative = inhibition | Potency
1 | CC(O)/C=C/c1ccc2ccccc2n1 (configuration not stated) | inactive: 1.6% | 
2 | Cc1ccc(C(=O)CSc2nnc(-c3ccccc3)n2-c2ccccc2)cc1 |  | inconclusive: 56.2 µM [inhibitor, partial curve, poor fit]
3 | COc1cccc(-n2c(-c3ccco3)nc3c(cnn3-c3ccc(C)cc3)c2=O)c1 | inactive: -16% | 
4 | CCCCn1c(N)c(N(CC(C)C)C(=O)CN2C(=O)NC3(CCC(C(C)(C)CC)CC3)C2=O)c(=O)[nH]c1=O (configuration not stated) | inactive: -22.1% | 
5 | Cc1cc(C)cc(N(C(=O)CNC(=O)c2ccco2)C(C(=O)NC2CCCCC2)c2ccncc2)c1 (configuration not stated) |  | inconclusive: 0.708 µM [inhibitor, full curve, poor fit]
6 | CCOC(=O)Nc1ccc2c(c1)nc(CN1CCN(C(C)=O)CC1)n2C | inactive: -2.8% | 
7 | O=C(CCS(=O)(=O)c1nc(-c2ccc3c(c2)OCO3)cc(C(F)(F)F)n1)Nc1ccc(F)c(Cl)c1 |  | inconclusive: 35.5 µM [inhibitor, single point]
8 | Cc1cc(C)c2c(=O)n(CC(=O)NCCCN3CCOCC3)sc2n1 | inactive: -18.3% | 
9 | CCOc1ccccc1NC(=O)CSc1ncc(S(=O)(=O)c2ccc(C(C)(C)C)cc2)c(=O)[nH]1 |  | inconclusive: 31.6 µM [inhibitor, partial curve]
10 | Cc1ccc(-c2ccc(/C=N/N3C(=O)C4C5C=CC(CC5)C4C3=O)o2)c([N+](=O)[O-])c1 (configuration not stated) |  | inconclusive: 39.8 µM [inhibitor, partial curve]
11 | CN(C)c1cc(Cl)c2nonc2c1N |  | active: 31.6 µM
12 | COC(=O)c1c(-c2ccc(OC)cc2)oc2ccc(-c3cc(OC)c(OC)c(OC)c3)cc12 |  | inconclusive: 89.1 µM [inhibitor, partial curve, poor fit]
13 | COc1cccc(COc2cc3ccccc3nc2C)c1 |  | inconclusive: 31.6 µM [inhibitor, partial curve]
14 | Cc1ccc(S(=O)(=O)n2ccc3c(OCCOCCSCC(NC(=O)OC(C)(C)C)C(=O)O)cccc32)cc1 (configuration not stated) |  | inconclusive: 0.631 µM [inhibitor, full curve, poor fit]
15 | CC(C)c1ccc(NC(=O)c2cnn3c(C(F)F)cc(-c4ccccc4)nc23)cc1 |  | inconclusive: 0.224 µM [inhibitor, full curve]
16 | Cc1cccc(OCCOCCn2c(-c3ccc(Cl)cc3)nc3ccccc3c2=O)c1C |  | inconclusive: 10 µM [inhibitor, partial curve]
17 | CC1(C)CC(=O)C2=C(C1)c1c(ccc3ccccc13)NC2c1cc([N+](=O)[O-])cc([N+](=O)[O-])c1O (configuration not stated) |  | inconclusive: 28.2 µM [inhibitor, partial curve]

A different layout for two compounds above:
CN(C)c1cc(Cl)c2nonc2c1N
  Potency: active: 31.6 µM
COC(=O)c1c(-c2ccc(OC)cc2)oc2ccc(-c3cc(OC)c(OC)c(OC)c3)cc12
  Potency: inconclusive: 89.1 µM [inhibitor, partial curve, poor fit]
